According to publication PMC8384468:
Results are given in words; binding and its absence hold for the method and conditions named. Where a sequence is shown, tags or fusion partners need not be part of it.

Target: T1, Mycobacterium smegmatis mycobacterial membrane protein large 3 (MmpL3) transporter, full length (M. smegmatis), A0QP27
T1 chain: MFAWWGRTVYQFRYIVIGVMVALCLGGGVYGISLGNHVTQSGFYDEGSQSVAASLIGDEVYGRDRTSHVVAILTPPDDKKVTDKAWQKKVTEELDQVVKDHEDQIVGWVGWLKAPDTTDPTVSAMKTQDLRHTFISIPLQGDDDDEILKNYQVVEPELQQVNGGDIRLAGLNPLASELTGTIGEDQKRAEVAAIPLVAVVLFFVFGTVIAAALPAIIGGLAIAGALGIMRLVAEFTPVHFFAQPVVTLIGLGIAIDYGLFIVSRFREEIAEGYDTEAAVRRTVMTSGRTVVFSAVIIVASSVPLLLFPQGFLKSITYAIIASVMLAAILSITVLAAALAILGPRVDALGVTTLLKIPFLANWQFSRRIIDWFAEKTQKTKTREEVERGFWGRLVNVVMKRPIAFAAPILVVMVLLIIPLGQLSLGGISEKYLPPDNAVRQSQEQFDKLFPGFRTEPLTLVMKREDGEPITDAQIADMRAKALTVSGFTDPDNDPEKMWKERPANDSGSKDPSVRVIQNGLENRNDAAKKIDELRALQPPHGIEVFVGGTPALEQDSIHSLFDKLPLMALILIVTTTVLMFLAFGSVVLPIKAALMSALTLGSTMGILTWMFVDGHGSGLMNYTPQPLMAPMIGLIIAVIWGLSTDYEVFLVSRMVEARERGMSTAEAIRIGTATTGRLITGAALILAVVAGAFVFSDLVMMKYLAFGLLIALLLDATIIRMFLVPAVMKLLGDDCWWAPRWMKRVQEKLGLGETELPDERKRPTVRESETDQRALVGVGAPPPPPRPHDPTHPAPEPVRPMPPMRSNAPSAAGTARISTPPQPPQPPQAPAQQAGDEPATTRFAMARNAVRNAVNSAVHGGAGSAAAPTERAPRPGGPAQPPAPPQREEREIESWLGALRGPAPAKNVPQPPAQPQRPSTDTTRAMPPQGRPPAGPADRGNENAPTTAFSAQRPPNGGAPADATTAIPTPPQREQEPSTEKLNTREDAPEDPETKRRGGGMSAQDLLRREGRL
Experiment: cryo-EM structure; single-particle cryo-EM of delipidated MmpL3 reconstituted in nanodiscs (10 uM MmpL3, 30 uM MSP cNW9, 900 uM E. coli total extract lipid); Superose 6 in 20 mM Tris-HCl (pH 7.5), 100 mM NaCl; C1 symmetry; both purified
Details: remark: other sources report otherwise

binding: no binding
B1: Mycobacterium smegmatis mycobacterial membrane protein large 3 (MmpL3) transporter, full length, A0QP27 1-1013 (protein)
chain: MFAWWGRTVYQFRYIVIGVMVALCLGGGVYGISLGNHVTQSGFYDEGSQSVAASLIGDEVYGRDRTSHVVAILTPPDDKKVTDKAWQKKVTEELDQVVKDHEDQIVGWVGWLKAPDTTDPTVSAMKTQDLRHTFISIPLQGDDDDEILKNYQVVEPELQQVNGGDIRLAGLNPLASELTGTIGEDQKRAEVAAIPLVAVVLFFVFGTVIAAALPAIIGGLAIAGALGIMRLVAEFTPVHFFAQPVVTLIGLGIAIDYGLFIVSRFREEIAEGYDTEAAVRRTVMTSGRTVVFSAVIIVASSVPLLLFPQGFLKSITYAIIASVMLAAILSITVLAAALAILGPRVDALGVTTLLKIPFLANWQFSRRIIDWFAEKTQKTKTREEVERGFWGRLVNVVMKRPIAFAAPILVVMVLLIIPLGQLSLGGISEKYLPPDNAVRQSQEQFDKLFPGFRTEPLTLVMKREDGEPITDAQIADMRAKALTVSGFTDPDNDPEKMWKERPANDSGSKDPSVRVIQNGLENRNDAAKKIDELRALQPPHGIEVFVGGTPALEQDSIHSLFDKLPLMALILIVTTTVLMFLAFGSVVLPIKAALMSALTLGSTMGILTWMFVDGHGSGLMNYTPQPLMAPMIGLIIAVIWGLSTDYEVFLVSRMVEARERGMSTAEAIRIGTATTGRLITGAALILAVVAGAFVFSDLVMMKYLAFGLLIALLLDATIIRMFLVPAVMKLLGDDCWWAPRWMKRVQEKLGLGETELPDERKRPTVRESETDQRALVGVGAPPPPPRPHDPTHPAPEPVRPMPPMRSNAPSAAGTARISTPPQPPQPPQAPAQQAGDEPATTRFAMARNAVRNAVNSAVHGGAGSAAAPTERAPRPGGPAQPPAPPQREEREIESWLGALRGPAPAKNVPQPPAQPQRPSTDTTRAMPPQGRPPAGPADRGNENAPTTAFSAQRPPNGGAPADATTAIPTPPQREQEPSTEKLNTREDAPEDPETKRRGGGMSAQDLLRREGRL
